Assay results published in doi:10.1101/2021.02.09.430424.
Like-named read-outs stand apart in the source and are kept apart here. These are yes or no findings as the source states them, for the method shown. Binding seen in cells or lysates may run through a third protein. Some results given as binding are weak or reduced against the parent protein; the word gives no strength. For part of these data: Tags and fused reporters may be left off the sequences shown.

Protein sequences, listed by entry. Tags and fused reporters are not part of them. Residues count along the entry.
UniProt Q13546: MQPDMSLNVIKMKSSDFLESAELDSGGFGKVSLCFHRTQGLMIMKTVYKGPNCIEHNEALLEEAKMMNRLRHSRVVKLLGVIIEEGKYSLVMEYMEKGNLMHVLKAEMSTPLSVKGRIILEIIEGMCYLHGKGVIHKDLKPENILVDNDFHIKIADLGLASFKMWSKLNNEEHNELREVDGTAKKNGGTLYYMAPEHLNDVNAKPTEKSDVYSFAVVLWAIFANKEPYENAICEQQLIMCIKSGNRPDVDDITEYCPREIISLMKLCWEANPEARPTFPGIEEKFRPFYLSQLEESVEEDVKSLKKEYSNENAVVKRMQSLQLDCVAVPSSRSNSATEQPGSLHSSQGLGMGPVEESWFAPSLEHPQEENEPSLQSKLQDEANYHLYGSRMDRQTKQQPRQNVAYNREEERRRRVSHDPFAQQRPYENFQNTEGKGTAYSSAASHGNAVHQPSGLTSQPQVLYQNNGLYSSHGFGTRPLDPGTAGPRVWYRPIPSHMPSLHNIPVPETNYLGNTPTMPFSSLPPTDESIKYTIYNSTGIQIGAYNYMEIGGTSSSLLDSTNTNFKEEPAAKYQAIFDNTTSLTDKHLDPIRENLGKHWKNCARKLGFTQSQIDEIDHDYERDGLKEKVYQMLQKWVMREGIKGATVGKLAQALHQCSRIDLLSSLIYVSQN
UniProt Q9NTX7, residues 92-168: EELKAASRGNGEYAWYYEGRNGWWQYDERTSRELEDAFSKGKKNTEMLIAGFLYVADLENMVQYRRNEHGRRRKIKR
UniProt P11103: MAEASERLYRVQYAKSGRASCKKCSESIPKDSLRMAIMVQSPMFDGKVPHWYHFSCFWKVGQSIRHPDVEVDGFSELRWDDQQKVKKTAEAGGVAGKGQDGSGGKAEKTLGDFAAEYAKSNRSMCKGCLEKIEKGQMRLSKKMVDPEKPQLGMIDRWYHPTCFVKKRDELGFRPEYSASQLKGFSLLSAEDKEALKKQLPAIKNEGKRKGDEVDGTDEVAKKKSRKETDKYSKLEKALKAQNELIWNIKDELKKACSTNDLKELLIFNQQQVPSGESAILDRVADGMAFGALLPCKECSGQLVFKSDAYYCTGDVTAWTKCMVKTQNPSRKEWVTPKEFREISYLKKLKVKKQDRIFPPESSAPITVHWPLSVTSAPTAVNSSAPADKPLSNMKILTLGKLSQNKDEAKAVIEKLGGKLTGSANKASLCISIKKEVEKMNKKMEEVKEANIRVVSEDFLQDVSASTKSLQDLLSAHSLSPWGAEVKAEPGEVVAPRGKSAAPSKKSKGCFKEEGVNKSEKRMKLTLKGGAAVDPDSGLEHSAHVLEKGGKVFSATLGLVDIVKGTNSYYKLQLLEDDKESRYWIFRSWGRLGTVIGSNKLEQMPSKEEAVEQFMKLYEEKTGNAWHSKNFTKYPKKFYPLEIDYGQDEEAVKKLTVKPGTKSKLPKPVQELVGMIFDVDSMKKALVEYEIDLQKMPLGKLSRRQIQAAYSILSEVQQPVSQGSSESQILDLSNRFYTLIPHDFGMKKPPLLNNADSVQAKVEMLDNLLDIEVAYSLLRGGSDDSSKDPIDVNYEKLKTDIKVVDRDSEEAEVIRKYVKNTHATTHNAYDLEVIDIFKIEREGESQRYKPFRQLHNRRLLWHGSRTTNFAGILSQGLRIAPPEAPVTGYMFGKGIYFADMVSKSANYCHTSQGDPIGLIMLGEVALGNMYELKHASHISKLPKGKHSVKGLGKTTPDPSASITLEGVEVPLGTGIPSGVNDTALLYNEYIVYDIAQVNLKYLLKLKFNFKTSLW

T1: tankyrase-1 (endogenous, mouse) (mouse (endogenous in BMDMs, MDFs, MEFs)) (UniProt Q6PFX9)
T1 sequence: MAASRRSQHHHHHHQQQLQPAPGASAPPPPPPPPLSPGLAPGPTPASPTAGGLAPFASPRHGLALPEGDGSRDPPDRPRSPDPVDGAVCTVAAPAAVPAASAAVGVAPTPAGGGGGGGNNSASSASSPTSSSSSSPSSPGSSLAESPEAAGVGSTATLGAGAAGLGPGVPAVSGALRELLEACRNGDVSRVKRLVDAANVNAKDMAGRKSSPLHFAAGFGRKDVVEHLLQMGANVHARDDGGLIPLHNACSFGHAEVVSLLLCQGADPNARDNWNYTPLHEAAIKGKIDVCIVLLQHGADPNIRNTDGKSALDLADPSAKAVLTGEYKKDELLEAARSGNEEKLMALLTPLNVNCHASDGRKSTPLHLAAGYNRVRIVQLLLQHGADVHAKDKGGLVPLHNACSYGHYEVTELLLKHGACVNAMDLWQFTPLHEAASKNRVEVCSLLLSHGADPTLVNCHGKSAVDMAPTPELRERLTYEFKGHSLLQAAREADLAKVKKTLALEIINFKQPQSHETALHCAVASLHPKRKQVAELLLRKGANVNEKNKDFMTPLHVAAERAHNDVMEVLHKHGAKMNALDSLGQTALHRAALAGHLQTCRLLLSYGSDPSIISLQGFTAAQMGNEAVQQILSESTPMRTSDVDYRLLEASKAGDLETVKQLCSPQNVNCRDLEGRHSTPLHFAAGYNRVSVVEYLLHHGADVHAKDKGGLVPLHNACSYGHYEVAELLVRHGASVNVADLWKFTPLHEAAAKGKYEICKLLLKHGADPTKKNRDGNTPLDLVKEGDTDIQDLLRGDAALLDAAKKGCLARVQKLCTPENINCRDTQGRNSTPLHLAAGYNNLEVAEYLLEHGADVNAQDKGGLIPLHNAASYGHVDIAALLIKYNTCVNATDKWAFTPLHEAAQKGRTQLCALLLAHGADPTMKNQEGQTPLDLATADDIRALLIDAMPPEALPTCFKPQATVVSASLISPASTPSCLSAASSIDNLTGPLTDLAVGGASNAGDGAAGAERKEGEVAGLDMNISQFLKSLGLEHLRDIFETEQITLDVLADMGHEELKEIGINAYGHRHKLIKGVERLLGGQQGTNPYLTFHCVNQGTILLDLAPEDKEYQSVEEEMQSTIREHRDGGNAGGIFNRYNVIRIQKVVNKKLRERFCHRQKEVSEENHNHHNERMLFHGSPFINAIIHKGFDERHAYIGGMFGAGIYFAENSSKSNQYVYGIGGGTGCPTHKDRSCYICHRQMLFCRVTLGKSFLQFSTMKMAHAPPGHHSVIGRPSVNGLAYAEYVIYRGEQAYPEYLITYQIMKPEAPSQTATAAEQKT

T2: FADD (endogenous, mouse) (mouse (endogenous in BMDMs, MDFs, MEFs)) (UniProt Q61160)
T2 sequence: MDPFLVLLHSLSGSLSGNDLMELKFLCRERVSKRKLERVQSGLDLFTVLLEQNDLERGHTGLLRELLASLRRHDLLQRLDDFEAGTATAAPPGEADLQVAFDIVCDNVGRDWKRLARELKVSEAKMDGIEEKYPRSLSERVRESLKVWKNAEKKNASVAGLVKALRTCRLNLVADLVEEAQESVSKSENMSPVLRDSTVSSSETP

T3: RIPK1 (endogenous, mouse) (mouse (endogenous in BMDMs, MDFs, MEFs)) (UniProt Q60855)
T3 sequence: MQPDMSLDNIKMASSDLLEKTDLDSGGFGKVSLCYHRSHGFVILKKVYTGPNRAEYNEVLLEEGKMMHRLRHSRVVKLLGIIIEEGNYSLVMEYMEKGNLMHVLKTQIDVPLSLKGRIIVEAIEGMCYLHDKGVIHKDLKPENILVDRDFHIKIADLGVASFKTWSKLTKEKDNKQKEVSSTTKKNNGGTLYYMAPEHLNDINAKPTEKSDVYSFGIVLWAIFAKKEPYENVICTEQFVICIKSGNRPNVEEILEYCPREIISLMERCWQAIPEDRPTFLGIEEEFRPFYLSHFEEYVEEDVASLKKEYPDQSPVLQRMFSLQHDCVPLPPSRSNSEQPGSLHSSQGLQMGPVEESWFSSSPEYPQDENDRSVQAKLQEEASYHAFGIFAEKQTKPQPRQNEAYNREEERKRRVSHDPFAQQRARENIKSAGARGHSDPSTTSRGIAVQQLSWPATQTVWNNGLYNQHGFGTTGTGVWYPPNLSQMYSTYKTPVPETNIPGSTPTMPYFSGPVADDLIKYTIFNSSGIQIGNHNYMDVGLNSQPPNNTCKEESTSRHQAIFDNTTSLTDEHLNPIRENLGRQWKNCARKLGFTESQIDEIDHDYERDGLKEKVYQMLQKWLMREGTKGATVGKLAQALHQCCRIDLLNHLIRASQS

T4: cleaved caspase-8 (endogenous, mouse) (mouse (endogenous in BMDMs, MDFs, MEFs)) (UniProt O89110)
T4 sequence: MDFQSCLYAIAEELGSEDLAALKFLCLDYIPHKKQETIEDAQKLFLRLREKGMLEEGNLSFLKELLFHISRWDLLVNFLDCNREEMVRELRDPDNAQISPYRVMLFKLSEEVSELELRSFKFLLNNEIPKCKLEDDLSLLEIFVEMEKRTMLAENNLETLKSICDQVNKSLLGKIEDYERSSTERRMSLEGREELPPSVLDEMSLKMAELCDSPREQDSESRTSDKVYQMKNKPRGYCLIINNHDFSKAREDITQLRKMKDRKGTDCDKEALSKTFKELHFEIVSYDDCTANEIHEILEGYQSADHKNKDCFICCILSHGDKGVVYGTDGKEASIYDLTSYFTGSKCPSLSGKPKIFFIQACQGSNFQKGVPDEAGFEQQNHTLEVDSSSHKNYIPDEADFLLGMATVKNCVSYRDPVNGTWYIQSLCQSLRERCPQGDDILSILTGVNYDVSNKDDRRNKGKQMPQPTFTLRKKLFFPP

B1: tankyrase-1 (endogenous, mouse) (enzyme, UniProt Q6PFX9 1-1320)
chain: T1 sequence
B2: cleaved caspase-8 (endogenous, mouse) (protein, UniProt O89110 1-480)
chain: T4 sequence
B3: C-terminally 3x FLAG tagged caspase-8 from Casp8^C3FLAG knock-in mice (protein, UniProt O89110 1-480)
chain: T4 sequence

Key:
[1] = biological target: RIPK1 (endogenous, human) (human (endogenous in HT1080 and HT29)) (UniProt Q13546); experiment: co-IP
[2] = biological target: GST fusion of the wild-type WWE domain of RNF146 (human) (UniProt Q9NTX7); experiment: pull-down
[3] = biological target: GST fusion of the wild-type WWE domain of RNF146 (human) (UniProt Q9NTX7); experiment: pull-down; remark: listed apart in the source
[4] = biological target: T1, tankyrase-1 (endogenous, mouse) (mouse (endogenous in BMDMs, MDFs, MEFs)); experiment: co-IP
[5] = biological target: GST fusion of the wild-type WWE domain of RNF146 (human) (UniProt Q9NTX7); experiment: pull-down; remark: listed apart in the source
[6] = biological target: T2, FADD (endogenous, mouse) (mouse (endogenous in BMDMs, MDFs, MEFs)); experiment: co-IP
[7] = biological target: T3, RIPK1 (endogenous, mouse) (mouse (endogenous in BMDMs, MDFs, MEFs)); experiment: co-IP
[8] = biological target: T4, cleaved caspase-8 (endogenous, mouse) (mouse (endogenous in BMDMs, MDFs, MEFs)); experiment: co-IP

| Molecule | binding [2] | binding [3] | binding [4] | binding [5] | further results |
| --- | --- | --- | --- | --- | --- |
| TNKS1 (endogenous, human) (from UniProt O95271 1-1327) (enzyme) | – | – | – | – | binding [1]: binds |
| FADD (endogenous, mouse) (from UniProt Q61160 1-205) | binds | binds weakly | binds | binds | – |
| PARP1 (endogenous, mouse) (from UniProt P11103) (enzyme) | – | – | – | binds | – |
| B1 | binds | – | – | binds | binding [6]: binds; binding [7]: binds; binding [8]: binds |
| B2 | – | binds weakly | binds | binds | – |
| B3 | binds | – | – | – | – |
